Measurements published in the supplement of paper PMC7666118.
This is one part of the list.

These molecules were tested against T1, VKORC1L1 (UniProt Q8N0U8) (assay: dose-dependent thermal stabilisation call (2D-TPP, DLPTP, 10% FDR) (binary (1 = stabilised)); higher = stabilised by the compound). Conditions: system: HL-60 intact cells; concentration range 0.04-10 µM.
T1 sequence (whole entry): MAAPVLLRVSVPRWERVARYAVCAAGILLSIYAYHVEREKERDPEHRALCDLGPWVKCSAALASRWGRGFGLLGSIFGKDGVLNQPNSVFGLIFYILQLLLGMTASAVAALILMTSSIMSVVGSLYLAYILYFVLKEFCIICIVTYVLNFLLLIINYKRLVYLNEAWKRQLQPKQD
Experimental: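 2D thermal proteome profiling in intact HL-60 cells treated with BRD-3811 (0, 0.04, 0.29, 2, 10 uM) for 90 min at 37 C, then heated 3 min at one of 12 temperatures (42-63.9 C). Soluble protein was quantified by TMT10 MS. The value is the DLPTP call of the paper: dose-dependent thermal stabilisation over all temperatures at 10% FDR (F-test of a dose-response against a flat model); one experiment, one call per tested protein.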

Structure (SMILES) | dose-dependent thermal stabilisation call
COc1ccc(Cn2ccc3cc(C)c(C(=O)NO)cc32)cc1 | inactive: 0
